In PMC5865676 one finds binding data, which are given here for 20 molecules.

Chains of the proteins cited; added tags and fusions are not shown.
UniProt P62140: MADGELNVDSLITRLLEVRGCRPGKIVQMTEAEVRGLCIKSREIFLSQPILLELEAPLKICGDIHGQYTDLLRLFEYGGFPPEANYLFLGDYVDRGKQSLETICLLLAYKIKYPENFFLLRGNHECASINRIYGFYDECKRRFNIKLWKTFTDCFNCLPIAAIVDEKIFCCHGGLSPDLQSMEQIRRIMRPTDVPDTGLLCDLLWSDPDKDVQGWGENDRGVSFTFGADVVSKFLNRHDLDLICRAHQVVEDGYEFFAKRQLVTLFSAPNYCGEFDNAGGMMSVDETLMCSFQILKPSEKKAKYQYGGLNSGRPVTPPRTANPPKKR
UniProt P19474: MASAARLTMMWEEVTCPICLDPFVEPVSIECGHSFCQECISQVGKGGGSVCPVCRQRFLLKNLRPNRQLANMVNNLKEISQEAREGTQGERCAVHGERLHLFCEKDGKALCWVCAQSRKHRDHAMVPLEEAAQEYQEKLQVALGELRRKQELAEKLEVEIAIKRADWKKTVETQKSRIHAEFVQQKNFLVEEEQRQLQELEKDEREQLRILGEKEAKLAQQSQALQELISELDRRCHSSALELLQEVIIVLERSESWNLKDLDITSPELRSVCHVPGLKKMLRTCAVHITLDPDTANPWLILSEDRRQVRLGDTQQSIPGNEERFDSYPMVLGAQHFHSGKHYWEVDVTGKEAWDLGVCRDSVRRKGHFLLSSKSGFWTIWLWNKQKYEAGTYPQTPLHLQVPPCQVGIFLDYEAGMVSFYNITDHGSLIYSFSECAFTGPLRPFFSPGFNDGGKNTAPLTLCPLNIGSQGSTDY
UniProt P50990: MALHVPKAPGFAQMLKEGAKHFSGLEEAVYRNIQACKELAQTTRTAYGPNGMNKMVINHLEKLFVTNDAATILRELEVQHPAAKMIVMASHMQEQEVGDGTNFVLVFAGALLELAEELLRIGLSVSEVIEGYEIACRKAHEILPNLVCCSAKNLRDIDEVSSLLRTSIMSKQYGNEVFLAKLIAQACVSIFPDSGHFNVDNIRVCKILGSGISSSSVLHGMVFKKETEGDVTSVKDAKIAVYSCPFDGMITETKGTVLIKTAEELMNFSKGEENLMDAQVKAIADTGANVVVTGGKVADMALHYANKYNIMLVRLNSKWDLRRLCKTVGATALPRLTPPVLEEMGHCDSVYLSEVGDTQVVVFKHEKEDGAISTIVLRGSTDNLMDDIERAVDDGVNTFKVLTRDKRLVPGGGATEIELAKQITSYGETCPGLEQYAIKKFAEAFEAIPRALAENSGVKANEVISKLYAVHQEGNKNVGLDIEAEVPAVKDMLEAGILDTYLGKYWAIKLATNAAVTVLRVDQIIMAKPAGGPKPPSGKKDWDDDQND
UniProt P36873: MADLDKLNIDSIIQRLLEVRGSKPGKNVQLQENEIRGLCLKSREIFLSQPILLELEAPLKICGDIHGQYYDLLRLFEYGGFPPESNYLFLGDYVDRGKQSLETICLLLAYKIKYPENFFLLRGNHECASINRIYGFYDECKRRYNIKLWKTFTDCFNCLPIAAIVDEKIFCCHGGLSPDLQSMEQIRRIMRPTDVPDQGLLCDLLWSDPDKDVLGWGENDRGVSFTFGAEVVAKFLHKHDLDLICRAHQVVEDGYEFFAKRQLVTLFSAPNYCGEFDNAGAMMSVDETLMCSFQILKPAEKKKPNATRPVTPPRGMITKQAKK
UniProt Q15365: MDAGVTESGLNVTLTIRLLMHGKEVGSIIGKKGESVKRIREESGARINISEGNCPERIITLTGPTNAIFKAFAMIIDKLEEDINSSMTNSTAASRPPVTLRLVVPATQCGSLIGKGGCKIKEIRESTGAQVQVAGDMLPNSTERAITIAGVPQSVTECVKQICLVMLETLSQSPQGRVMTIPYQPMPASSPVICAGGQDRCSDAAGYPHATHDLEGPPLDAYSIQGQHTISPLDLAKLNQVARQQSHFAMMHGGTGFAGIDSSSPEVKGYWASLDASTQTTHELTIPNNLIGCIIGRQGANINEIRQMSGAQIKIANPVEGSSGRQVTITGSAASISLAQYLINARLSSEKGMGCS
UniProt O00571: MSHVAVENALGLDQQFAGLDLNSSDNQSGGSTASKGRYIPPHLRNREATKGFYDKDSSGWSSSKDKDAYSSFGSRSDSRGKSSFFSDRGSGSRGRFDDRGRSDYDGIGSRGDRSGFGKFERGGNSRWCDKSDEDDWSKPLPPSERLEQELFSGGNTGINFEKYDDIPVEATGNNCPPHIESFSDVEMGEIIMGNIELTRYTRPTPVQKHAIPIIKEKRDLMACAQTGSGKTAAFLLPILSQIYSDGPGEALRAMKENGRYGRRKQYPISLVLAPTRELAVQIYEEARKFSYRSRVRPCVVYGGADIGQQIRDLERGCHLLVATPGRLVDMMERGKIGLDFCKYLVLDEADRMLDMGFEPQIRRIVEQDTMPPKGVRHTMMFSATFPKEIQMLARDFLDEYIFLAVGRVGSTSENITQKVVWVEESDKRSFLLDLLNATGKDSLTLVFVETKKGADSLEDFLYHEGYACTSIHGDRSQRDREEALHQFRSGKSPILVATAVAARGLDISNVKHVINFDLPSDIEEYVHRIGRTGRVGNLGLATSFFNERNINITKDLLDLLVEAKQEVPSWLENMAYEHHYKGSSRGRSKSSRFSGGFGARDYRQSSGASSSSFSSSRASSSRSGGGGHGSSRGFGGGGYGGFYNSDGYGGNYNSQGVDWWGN
UniProt P62714: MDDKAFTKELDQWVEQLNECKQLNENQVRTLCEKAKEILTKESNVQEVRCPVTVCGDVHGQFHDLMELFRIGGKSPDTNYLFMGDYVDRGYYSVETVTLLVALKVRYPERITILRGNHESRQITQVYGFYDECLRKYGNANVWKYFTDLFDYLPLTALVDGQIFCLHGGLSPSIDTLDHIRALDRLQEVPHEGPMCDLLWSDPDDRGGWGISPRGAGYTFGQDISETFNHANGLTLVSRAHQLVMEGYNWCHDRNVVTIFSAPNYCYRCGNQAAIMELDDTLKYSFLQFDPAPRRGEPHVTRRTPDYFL
UniProt P06748: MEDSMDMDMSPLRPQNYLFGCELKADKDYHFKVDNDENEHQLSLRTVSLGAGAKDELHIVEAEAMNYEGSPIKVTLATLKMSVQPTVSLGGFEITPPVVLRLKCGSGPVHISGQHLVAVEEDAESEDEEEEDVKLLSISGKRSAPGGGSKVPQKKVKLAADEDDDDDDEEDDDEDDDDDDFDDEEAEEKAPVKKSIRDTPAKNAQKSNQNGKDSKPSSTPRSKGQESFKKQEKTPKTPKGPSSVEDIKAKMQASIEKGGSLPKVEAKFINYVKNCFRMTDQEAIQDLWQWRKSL
UniProt P63104: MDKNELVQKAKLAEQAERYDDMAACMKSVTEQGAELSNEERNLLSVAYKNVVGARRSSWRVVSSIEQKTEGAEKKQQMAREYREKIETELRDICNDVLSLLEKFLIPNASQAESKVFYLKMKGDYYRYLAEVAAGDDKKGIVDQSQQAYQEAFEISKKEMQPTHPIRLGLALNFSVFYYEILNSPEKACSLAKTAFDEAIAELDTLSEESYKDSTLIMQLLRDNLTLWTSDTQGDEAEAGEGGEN
UniProt Q99832: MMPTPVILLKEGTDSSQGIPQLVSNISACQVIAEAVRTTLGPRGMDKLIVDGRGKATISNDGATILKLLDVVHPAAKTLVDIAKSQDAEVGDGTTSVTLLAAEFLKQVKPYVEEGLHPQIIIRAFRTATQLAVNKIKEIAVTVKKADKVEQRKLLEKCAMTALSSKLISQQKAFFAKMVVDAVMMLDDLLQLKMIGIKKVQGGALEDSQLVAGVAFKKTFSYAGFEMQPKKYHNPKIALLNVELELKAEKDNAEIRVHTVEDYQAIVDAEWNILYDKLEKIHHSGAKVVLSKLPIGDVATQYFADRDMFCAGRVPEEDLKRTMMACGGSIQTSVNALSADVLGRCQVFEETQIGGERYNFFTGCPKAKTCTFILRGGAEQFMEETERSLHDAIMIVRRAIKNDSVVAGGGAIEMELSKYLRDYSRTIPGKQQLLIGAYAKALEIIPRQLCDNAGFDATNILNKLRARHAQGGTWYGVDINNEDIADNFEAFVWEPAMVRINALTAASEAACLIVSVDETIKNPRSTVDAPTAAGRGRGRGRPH
UniProt Q13263: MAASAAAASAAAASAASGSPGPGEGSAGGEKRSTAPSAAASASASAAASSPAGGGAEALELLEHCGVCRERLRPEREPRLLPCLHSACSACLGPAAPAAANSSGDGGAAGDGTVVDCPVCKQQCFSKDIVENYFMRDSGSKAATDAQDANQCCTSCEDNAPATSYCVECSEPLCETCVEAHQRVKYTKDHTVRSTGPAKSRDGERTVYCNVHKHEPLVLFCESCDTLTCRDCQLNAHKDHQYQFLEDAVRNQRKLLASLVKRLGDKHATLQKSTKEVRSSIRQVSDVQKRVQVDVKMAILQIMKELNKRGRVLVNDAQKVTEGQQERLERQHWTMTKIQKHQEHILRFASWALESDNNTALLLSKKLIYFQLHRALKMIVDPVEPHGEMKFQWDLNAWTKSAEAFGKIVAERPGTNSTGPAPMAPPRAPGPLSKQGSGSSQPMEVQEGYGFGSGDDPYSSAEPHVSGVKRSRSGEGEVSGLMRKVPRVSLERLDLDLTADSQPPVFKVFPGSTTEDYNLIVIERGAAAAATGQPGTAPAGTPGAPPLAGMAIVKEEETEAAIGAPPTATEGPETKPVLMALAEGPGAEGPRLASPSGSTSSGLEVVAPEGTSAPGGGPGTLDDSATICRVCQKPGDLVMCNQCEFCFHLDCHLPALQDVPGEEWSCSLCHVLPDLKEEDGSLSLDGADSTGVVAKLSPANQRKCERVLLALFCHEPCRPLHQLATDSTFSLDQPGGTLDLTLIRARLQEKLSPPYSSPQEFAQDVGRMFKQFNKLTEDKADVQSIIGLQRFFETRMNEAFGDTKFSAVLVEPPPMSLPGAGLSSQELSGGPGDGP
UniProt P67775: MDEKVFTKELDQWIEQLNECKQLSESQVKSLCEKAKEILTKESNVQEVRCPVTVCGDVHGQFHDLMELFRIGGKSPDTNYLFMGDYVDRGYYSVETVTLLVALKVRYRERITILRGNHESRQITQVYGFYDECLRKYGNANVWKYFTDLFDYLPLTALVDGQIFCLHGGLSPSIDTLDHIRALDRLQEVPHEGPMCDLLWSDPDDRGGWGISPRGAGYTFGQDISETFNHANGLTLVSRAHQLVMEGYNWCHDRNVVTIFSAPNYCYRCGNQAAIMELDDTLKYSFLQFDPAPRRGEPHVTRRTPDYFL
UniProt P62136: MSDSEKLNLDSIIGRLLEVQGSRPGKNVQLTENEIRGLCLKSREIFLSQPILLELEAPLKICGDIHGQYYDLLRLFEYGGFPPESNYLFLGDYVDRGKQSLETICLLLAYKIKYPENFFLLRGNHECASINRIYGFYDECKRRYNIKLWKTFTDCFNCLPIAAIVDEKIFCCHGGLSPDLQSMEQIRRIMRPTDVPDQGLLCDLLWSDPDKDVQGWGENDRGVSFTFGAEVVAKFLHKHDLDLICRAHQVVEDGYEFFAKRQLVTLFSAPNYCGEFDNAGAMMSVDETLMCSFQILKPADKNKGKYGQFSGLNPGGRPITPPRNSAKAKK
UniProt P05198: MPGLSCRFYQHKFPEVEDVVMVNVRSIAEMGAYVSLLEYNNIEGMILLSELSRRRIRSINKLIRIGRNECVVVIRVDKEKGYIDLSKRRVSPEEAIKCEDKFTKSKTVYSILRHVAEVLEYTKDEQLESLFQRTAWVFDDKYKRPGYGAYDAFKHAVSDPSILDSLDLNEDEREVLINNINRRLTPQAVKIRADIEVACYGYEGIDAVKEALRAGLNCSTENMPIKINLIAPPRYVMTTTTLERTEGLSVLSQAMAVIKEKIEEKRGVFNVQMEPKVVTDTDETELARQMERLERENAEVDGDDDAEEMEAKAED

Like-named read-outs stand apart in the source and are kept apart here. Results are given in words; binding and its absence hold for the method and conditions named. Binding seen in cells or lysates may run through a third protein. Here binding means that the protein was enriched with, or labelled near, the bait; the list need not be complete.

For assay [1], the target named is T1, TAK1 overexpressed from pCMV-TAK1 (UniProt O43318).
T1 sequence: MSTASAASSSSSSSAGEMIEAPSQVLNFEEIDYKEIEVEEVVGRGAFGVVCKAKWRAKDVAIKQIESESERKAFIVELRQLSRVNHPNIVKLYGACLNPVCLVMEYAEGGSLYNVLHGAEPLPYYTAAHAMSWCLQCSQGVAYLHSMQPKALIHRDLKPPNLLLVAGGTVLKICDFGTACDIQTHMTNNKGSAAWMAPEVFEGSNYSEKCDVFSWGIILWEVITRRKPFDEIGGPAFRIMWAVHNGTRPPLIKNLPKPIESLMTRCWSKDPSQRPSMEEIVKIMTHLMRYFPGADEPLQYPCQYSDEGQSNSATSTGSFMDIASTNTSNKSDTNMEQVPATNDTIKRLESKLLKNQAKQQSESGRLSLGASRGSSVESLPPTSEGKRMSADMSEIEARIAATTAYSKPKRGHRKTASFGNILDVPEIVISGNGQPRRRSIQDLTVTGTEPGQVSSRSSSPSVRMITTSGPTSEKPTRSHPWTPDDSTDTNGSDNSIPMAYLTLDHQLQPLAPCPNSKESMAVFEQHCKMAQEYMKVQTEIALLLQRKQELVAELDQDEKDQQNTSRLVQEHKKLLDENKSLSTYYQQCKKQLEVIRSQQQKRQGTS
The assay can be described thus: affinity purification with mass spectrometry; overexpressed TAK1 immunoprecipitated from untreated, H. pylori-infected (20 and 45 min) and TAB1-co-expressing AGS cells, on-bead trypsin digestion, LC-MS/MS; isotype antibody IP as filter; proteins found in at least 2 experiments.

For assay [2], the target named is T2, Transforming growth factor-β (TGFβ)-activated kinase 1 (TAK1), endogenous (human (endogenous in AGS)) (UniProt O43318).
T2 sequence: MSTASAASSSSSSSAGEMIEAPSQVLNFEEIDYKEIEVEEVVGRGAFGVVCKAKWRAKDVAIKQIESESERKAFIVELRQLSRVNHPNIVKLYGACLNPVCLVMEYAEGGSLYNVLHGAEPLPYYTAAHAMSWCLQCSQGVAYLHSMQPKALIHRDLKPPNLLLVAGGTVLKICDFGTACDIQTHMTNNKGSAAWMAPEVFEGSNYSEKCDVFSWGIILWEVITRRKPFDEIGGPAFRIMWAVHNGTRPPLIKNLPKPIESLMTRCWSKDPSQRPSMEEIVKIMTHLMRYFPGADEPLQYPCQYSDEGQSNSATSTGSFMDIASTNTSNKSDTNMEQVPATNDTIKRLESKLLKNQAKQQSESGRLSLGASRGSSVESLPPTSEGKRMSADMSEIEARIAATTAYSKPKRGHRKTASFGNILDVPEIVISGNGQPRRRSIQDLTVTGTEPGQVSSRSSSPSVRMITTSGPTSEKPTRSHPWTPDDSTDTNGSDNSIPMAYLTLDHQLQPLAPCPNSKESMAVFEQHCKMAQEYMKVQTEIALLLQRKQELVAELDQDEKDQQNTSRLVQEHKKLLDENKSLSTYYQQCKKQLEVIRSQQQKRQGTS
In words: affinity purification with mass spectrometry; endogenous TAK1 immunoprecipitated from mock- or TAB1-transfected uninfected AGS cells, on-bead trypsin digestion, LC-MS/MS; isotype antibody IP as filter; proteins found in at least 2 experiments.

In assay [3] the target is T2, Transforming growth factor-β (TGFβ)-activated kinase 1 (TAK1), endogenous (human (endogenous in AGS)). The assay is described as above. The source holds these as a separate data set.
The target of assay [4] is T1, TAK1 overexpressed from pCMV-TAK1. The assay can be described thus: affinity purification with mass spectrometry; overexpressed TAK1 immunoprecipitated from untreated, H. pylori-infected (20 and 45 min) and TAB1-co-expressing AGS cells, on-bead trypsin digestion, LC-MS/MS; isotype antibody IP as filter; proteins found in at least 2 experiments. This is another data set of the same source.

Turning to “PPP1CB, catalytic subunit of serine/threonine-protein phosphatase 1 (PP1) (from UniProt P62140 1-327) (enzyme)”, the binding entry in assay [1] is recorded as “binds”.

Take “Tripartite motif (TRIM)21 (from UniProt P19474 1-475)”: the binding entry in assay [2] and in assay [1] was “binds” throughout.

As for “CCT8, subunit of the chaperoning T complex (CCT) (from UniProt P50990 1-548)”, the binding result in assay [1] is recorded as “binds”.

Regarding “PPP1CC, catalytic subunit of serine/threonine-protein phosphatase 1 (PP1) (from UniProt P36873 1-323) (enzyme)”, in assay [1], the binding entry was “binds”.

As for “poly(rC)-binding protein (PCBP)1 (from UniProt Q15365 1-356)”, in assay [2], the binding entry was “binds”.

For “Asp-Glu-Ala-Asp (DEAD)-box helicase DDX3 (from UniProt O00571 1-662) (enzyme)”, the binding result in assay [2] is listed as “binds”.

For “PPP2B, catalytic subunit of serine/threonine-protein phosphatase 2A (PP2A) (from UniProt P62714 1-309) (enzyme)”, the binding entry in assay [1] is given as “binds”.

In the case of NPM1 (from UniProt P06748 1-294), the binding entry in assay [1] is recorded as “binds”.

Take “YWHAZ (14-3-3-zeta) (from UniProt P63104 1-245)”: in assay [1], the binding entry is given as “binds”.

For “CCT7, subunit of the chaperoning T complex (CCT) (from UniProt Q99832 1-543)”, the binding result in assay [1] is recorded as “binds”.

On to “Tripartite motif 28 (TRIM28) (from UniProt Q13263 1-835)”, for which the binding entry in assay [2] and in assay [1] was “binds” in each case.

Regarding “PPP2A, catalytic subunit of serine/threonine-protein phosphatase 2A (PP2A) (from UniProt P67775 1-309) (enzyme)”, in assay [1], the binding entry is reported as “binds”.

For the molecule “PPP1CA, catalytic subunit of serine/threonine-protein phosphatase 1 (PP1) (from UniProt P62136 1-330) (enzyme)”, in assay [1], the binding result is recorded as “binds”.

For the molecule EIF2S1 (from UniProt P05198 1-315), the binding entry in assay [1] is “binds”.

B1: TAK1-binding protein TAB3 (protein, UniProt Q8N5C8 1-712)
chain: MAQSSPQLDIQVLHDLRQRFPEIPEGVVSQCMLQNNNNLEACCRALSQESSKYLYMEYHSPDDNRMNRNRLLHINLGIHSPSSYHPGDGAQLNGGRTLVHSSSDGHIDPQHAAGKQLICLVQEPHSAPAVVAATPNYNPFFMNEQNRSAATPPSQPPQQPSSMQTGMNPSAMQGPSPPPPPPSYMHIPRYSTNPITVTVSQNLPSGQTVPRALQILPQIPSNLYGSPGSIYIRQTSQSSSGRQTPQSTPWQSSPQGPVPHYSQRPLPVYPHQQNYQPSQYSPKQQQIPQSAYHSPPPSQCPSPFSSPQHQVQPSQLGHIFMPPSPSTTPPHPYQQGPPSYQKQGSHSVAYLPYTASSLSKGSMKKIEITVEPSQRPGTAINRSPSPISNQPSPRNQHSLYTATTPPSSSPSRGISSQPKPPFSVNPVYITYTQPTGPSCTPSPSPRVIPNPTTVFKITVGRATTENLLNLVDQEERSAAPEPIQPISVIPGSGGEKGSHKYQRSSSSGSDDYAYTQALLLHQRARMERLAKQLKLEKEELERLKSEVNGMEHDLMQRRLRRVSCTTAIPTPEEMTRLRSMNRQLQINVDCTLKEVDLLQSRGNFDPKAMNNFYDNIEPGPVVPPKPSKKDSSDPCTIERKARRISVTSKVQADIHDTQAAAADEHRTGSTQSPRTQPRDEDYEGAPWNCDSCTFLNHPALNRCEQCEMPRYT
For B1, the binding result in assay [3] and in assay [4] was “binds” each time.

B2: SUMO-activating enzyme subunit 1 (SAE1) (enzyme, UniProt Q9UBE0 1-346)
chain: MVEKEEAGGGISEEEAAQYDRQIRLWGLEAQKRLRASRVLLVGLKGLGAEIAKNLILAGVKGLTMLDHEQVTPEDPGAQFLIRTGSVGRNRAEASLERAQNLNPMVDVKVDTEDIEKKPESFFTQFDAVCLTCCSRDVIVKVDQICHKNSIKFFTGDVFGYHGYTFANLGEHEFVEEKTKVAKVSQGVEDGPDTKRAKLDSSETTMVKKKVVFCPVKEALEVDWSSEKAKAALKRTTSDYFLLQVLLKFRTDKGRDPSSDTYEEDSELLLQIRNDVLDSLGISPDLLPEDFVRYCFSEMAPVCAVVGGILAQEIVKALSQRDPPHNNFFFFDGMKGNGIVECLGPK
Regarding B2, the binding result in assay [4] is “binds”.

B3: TAK1-binding protein TAB1, endogenous (protein, UniProt Q15750 1-504)
chain: MAAQRRSLLQSEQQPSWTDDLPLCHLSGVGSASNRSYSADGKGTESHPPEDSWLKFRSENNCFLYGVFNGYDGNRVTNFVAQRLSAELLLGQLNAEHAEADVRRVLLQAFDVVERSFLESIDDALAEKASLQSQLPEGVPQHQLPPQYQKILERLKTLEREISGGAMAVVAVLLNNKLYVANVGTNRALLCKSTVDGLQVTQLNVDHTTENEDELFRLSQLGLDAGKIKQVGIICGQESTRRIGDYKVKYGYTDIDLLSAAKSKPIIAEPEIHGAQPLDGVTGFLVLMSEGLYKALEAAHGPGQANQEIAAMIDTEFAKQTSLDAVAQAVVDRVKRIHSDTFASGGERARFCPRHEDMTLLVRNFGYPLGEMSQPTPSPAPAAGGRVYPVSVPYSSAQSTSKTSVTLSLVMPSQGQMVNGAHSASTLDEATPTLTNQSPTLTLQSTNTHTQSSSSSSDGGLFRSRPAHSLPPGEDGRVEPYVDFAEFYRLWSVDHGEQSVVTAP
For B3, the binding result in assay [3] and in assay [4] was “binds” each time.

B4: TAB1 overexpressed from pCMV-TAB1 (protein, UniProt Q15750 1-504)
chain: MAAQRRSLLQSEQQPSWTDDLPLCHLSGVGSASNRSYSADGKGTESHPPEDSWLKFRSENNCFLYGVFNGYDGNRVTNFVAQRLSAELLLGQLNAEHAEADVRRVLLQAFDVVERSFLESIDDALAEKASLQSQLPEGVPQHQLPPQYQKILERLKTLEREISGGAMAVVAVLLNNKLYVANVGTNRALLCKSTVDGLQVTQLNVDHTTENEDELFRLSQLGLDAGKIKQVGIICGQESTRRIGDYKVKYGYTDIDLLSAAKSKPIIAEPEIHGAQPLDGVTGFLVLMSEGLYKALEAAHGPGQANQEIAAMIDTEFAKQTSLDAVAQAVVDRVKRIHSDTFASGGERARFCPRHEDMTLLVRNFGYPLGEMSQPTPSPAPAAGGRVYPVSVPYSSAQSTSKTSVTLSLVMPSQGQMVNGAHSASTLDEATPTLTNQSPTLTLQSTNTHTQSSSSSSDGGLFRSRPAHSLPPGEDGRVEPYVDFAEFYRLWSVDHGEQSVVTAP
Regarding B4, the binding result in assay [3] and in assay [4] was “binds” each time.

B5: TAK1-binding protein TAB2 (protein, UniProt Q9NYJ8 1-693)
chain: MAQGSHQIDFQVLHDLRQKFPEVPEVVVSRCMLQNNNNLDACCAVLSQESTRYLYGEGDLNFSDDSGISGLRNHMTSLNLDLQSQNIYHHGREGSRMNGSRTLTHSISDGQLQGGQSNSELFQQEPQTAPAQVPQGFNVFGMSSSSGASNSAPHLGFHLGSKGTSSLSQQTPRFNPIMVTLAPNIQTGRNTPTSLHIHGVPPPVLNSPQGNSIYIRPYITTPGGTTRQTQQHSGWVSQFNPMNPQQVYQPSQPGPWTTCPASNPLSHTSSQQPNQQGHQTSHVYMPISSPTTSQPPTIHSSGSSQSSAHSQYNIQNISTGPRKNQIEIKLEPPQRNNSSKLRSSGPRTSSTSSSVNSQTLNRNQPTVYIAASPPNTDELMSRSQPKVYISANAATGDEQVMRNQPTLFISTNSGASAASRNMSGQVSMGPAFIHHHPPKSRAIGNNSATSPRVVVTQPNTKYTFKITVSPNKPPAVSPGVVSPTFELTNLLNHPDHYVETENIQHLTDPTLAHVDRISETRKLSMGSDDAAYTQALLVHQKARMERLQRELEIQKKKLDKLKSEVNEMENNLTRRRLKRSNSISQIPSLEEMQQLRSCNRQLQIDIDCLTKEIDLFQARGPHFNPSAIHNFYDNIGFVGPVPPKPKDQRSIIKTPKTQDTEDDEGAQWNCTACTFLNHPALIRCEQCEMPRHF
With B5, the binding result in assay [3] and in assay [4] was “binds” each time.

B6: CDC37 (protein, UniProt Q16543 1-378)
chain: MVDYSVWDHIEVSDDEDETHPNIDTASLFRWRHQARVERMEQFQKEKEELDRGCRECKRKVAECQRKLKELEVAEGGKAELERLQAEAQQLRKEERSWEQKLEEMRKKEKSMPWNVDTLSKDGFSKSMVNTKPEKTEEDSEEVREQKHKTFVEKYEKQIKHFGMLRRWDDSQKYLSDNVHLVCEETANYLVIWCIDLEVEEKCALMEQVAHQTIVMQFILELAKSLKVDPRACFRQFFTKIKTADRQYMEGFNDELEAFKERVRGRAKLRIEKAMKEYEEEERKKRLGPGGLDPVEVYESLPEELQKCFDVKDVQMLQDAISKMDPTDAKYHMQRCIDSGLWVPNSKASEAKEGEEAGPGDPLLEAVPKTGDEKDVSV
In the case of B6, the binding result in assay [4] is recorded as “binds”.
